Experimental data reported in publication PMC7862700.
Some of the results follow. The source does not settle which construct or isoform was used.

biological target: T1, ETS1 (UniProt P14921); assay: DAPPL (digital affinity profiling via proximity ligation, sequencing); settings: 10 mM Tris-HCl pH 7.5, 50 mM NaCl, 1 mM DTT, 4% glycerol, room temperature, 30 min; GST-TFs on glutathione beads, 16-mer random dsDNA library, 0.1% …; high values mean tight binding; double strand, one strand shown; scale: fold enrichment (6-mer frequency, TF over GST control)
T1 sequence: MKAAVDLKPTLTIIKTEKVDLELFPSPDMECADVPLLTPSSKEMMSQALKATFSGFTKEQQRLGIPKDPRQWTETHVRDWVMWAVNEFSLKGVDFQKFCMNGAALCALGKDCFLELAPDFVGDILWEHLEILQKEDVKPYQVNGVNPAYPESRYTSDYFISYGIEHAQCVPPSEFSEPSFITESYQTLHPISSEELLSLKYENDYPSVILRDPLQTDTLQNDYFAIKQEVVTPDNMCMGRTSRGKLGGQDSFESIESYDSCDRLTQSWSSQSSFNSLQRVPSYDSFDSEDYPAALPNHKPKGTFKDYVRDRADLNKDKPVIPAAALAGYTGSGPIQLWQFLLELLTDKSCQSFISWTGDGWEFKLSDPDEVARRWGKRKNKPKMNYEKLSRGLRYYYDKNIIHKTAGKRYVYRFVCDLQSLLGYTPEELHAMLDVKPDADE

Row | Sequence | binding signal
1 | CATATA | 1.1
2 | TACTGG | 1.24
3 | AACTTA | 1.3
4 | CCGATA | 1.05
5 | CCGCGT | 1.17
6 | ATTTCT | 1.51
7 | CGACTT | 1.77
8 | AGATTC | 1.18
9 | TTAGCG | 1.02
10 | TGTTCA | 1.13
11 | CTAAAC | 1.23
12 | TTGAAC | 1.06
13 | ATAGCA | 1.16
14 | TCTGGG | 1.24
15 | ACTAGC | 1.1
16 | GCTTTG | 1.19
17 | CCGATC | 1.16
18 | GTTTTC | 1.24
19 | TCCGGA | 2.36
20 | ACACGA | 1.09

Row | Sequence | binding signal
21 | CTTTTT | 1.29
22 | GGGCCT | 1.32
23 | TGCGCT | 1.22
24 | ATCCGA | 1.16
25 | CTTATC | 1.2
26 | ACCAAT | 1.35
27 | TTGATG | 1.67
28 | CGCTCC | 1.26
29 | CTTGGA | 1.14
30 | ATGGCT | 1.46
31 | GCTCAA | 1.06
32 | TCTGAT | 1.18
33 | AAACAT | 1.47
34 | TCTCTG | 1.61
35 | ATCGAA | 1.12
36 | TATCCG | 2.38
37 | ATGCGG | 1.04
38 | AACTGC | 1.36
39 | ACTAAG | 0.991
40 | TCCCCA | 1.38

2 entries drawn at random from the list so far:
Row | Sequence | binding signal
12 | TTGAAC | 1.06
8 | AGATTC | 1.18
